The source of these data is article PMC10653890, “The morphogenic protein CopD controls the spatio-temporal dynamics of PBP1a and PBP2b in Streptococcus pneumoniae” (mBio, 2023).

The target of test [1] is CopD (Spr1400), T25 fusion for bacterial two-hybrid (Streptococcus pneumoniae). Briefly: two-hybrid; BACTH (bacterial adenylate cyclase two-hybrid) in E. coli BTH101; T25 fused to the N-terminus of CopD, T18 to the N-terminus of the PBPs and derivatives; LB agar with IPTG 0.5 mM and X-gal, room temperature, blue colonies at 24-72 hours.
The target of test [2] is CopD-sfGFP (Streptococcus pneumoniae). In words: co-IP; GFP-TRAP resin on Triton X-100 extract of S. pneumoniae copD-sfGFP cells (PcomX-sfGFP cells as control); immunoblot with anti-GFP, anti-PBP1a and anti-PBP2b antibodies.

These are yes or no findings as the source states them, for the method shown. Binding can be weak; no strength is given. For part of these data: Sequences can lack the tags named with a protein. For part of these data: In cells and extracts the contact can be indirect.

B1: PBP1a, T18 fusion for bacterial two-hybrid (protein, UniProt Q8DR59 1-719)
chain: MNKPTILRLIKYLSISFLSLVIAAIVLGGGVFFYYVSKAPSLSESKLVATTSSKIYDNKNQLIADLGSERRVNAQANDIPTDLVKAIVSIEDHRFFDHRGIDTIRILGAFLRNLQSNSLQGGSALTQQLIKLTYFSTSTSDQTISRKAQEAWLAIQLEQKATKQEILTYYINKVYMSNGNYGMQTAAQNYYGKDLNNLSLPQLALLAGMPQAPNQYDPYSHPEAAQDRRNLVLSEMKNQGYISAEQYEKAVNTPITDGLQSLKSASNYPAYMDNYLKEVINQVEEETGYNLLTTGMDVYTNVDQEAQKHLWDIYNTDEYVAYPDDELQVASTIVDVSNGKVIAQLGARHQSSNVSFGINQAVETNRDWGSTMKPITDYAPALEYGVYESTATIVHDEPYNYPGTNTPVYNWDRGYFGNITLQYALQQSRNVPAVETLNKVGLNRAKTFLNGLGIDYPSIHYSNAISSNTTESDKKYGASSEKMAAAYAAFANGGTYYKPMYIHKVVFSDGSEKEFSNVGTRAMKETTAYMMTDMMKTVLSYGTGRNAYLAWLPQAGKTGTSNYTDEEIENHIKTSQFVAPDELFAGYTRKYSMAVWTGYSNRLTPLVGNGLTVAAKVYRSMMTYLSEGSNPEDWNIPEGLYRNGEFVFKNGARSTWSSPAPQQPPSTESSSSSSDSSTSQSSSTTPSTNNSTTTNPNNNTQQSNTTPDQQNQNPQPAQP
In the case of B1, in test [1], the binding entry was “binds”.

B2: PBP1a in S. pneumoniae cells (co-immunoprecipitation) (protein, UniProt Q8DR59 1-719)
chain: MNKPTILRLIKYLSISFLSLVIAAIVLGGGVFFYYVSKAPSLSESKLVATTSSKIYDNKNQLIADLGSERRVNAQANDIPTDLVKAIVSIEDHRFFDHRGIDTIRILGAFLRNLQSNSLQGGSALTQQLIKLTYFSTSTSDQTISRKAQEAWLAIQLEQKATKQEILTYYINKVYMSNGNYGMQTAAQNYYGKDLNNLSLPQLALLAGMPQAPNQYDPYSHPEAAQDRRNLVLSEMKNQGYISAEQYEKAVNTPITDGLQSLKSASNYPAYMDNYLKEVINQVEEETGYNLLTTGMDVYTNVDQEAQKHLWDIYNTDEYVAYPDDELQVASTIVDVSNGKVIAQLGARHQSSNVSFGINQAVETNRDWGSTMKPITDYAPALEYGVYESTATIVHDEPYNYPGTNTPVYNWDRGYFGNITLQYALQQSRNVPAVETLNKVGLNRAKTFLNGLGIDYPSIHYSNAISSNTTESDKKYGASSEKMAAAYAAFANGGTYYKPMYIHKVVFSDGSEKEFSNVGTRAMKETTAYMMTDMMKTVLSYGTGRNAYLAWLPQAGKTGTSNYTDEEIENHIKTSQFVAPDELFAGYTRKYSMAVWTGYSNRLTPLVGNGLTVAAKVYRSMMTYLSEGSNPEDWNIPEGLYRNGEFVFKNGARSTWSSPAPQQPPSTESSSSSSDSSTSQSSSTTPSTNNSTTTNPNNNTQQSNTTPDQQNQNPQPAQP
Take B2: in test [2], the binding entry is recorded as “binds”.

B3: PBP2a, fusion for bacterial two-hybrid (protein, UniProt Q8DNB6 1-731)
chain: MKLDKLFEKFLSLFKKETSELEDSDSTILRRSRSDRKKLAQVGPIRKFWRRYHLTKIILILGLSAGLLVGIYLFAVAKSTNVNDLQNALKTRTLIFDREEKEAGALSGQKGTYVELTDISKNLQNAVIATEDRSFYKNDGINYGRFFLAIVTAGRSGGGSTITQQLAKNAYLSQDQTVERKAKEFFLALELSKKYSKEQILTMYLNNAYFGNGVWGVEDASKKYFGVSASEVSLDQAATLAGMLKGPELYNPLNSVEDSTNRRDTVLQNMVAAGYIDKNQETEAAEVDMTSQLHDKYEGKISDYRYPSYFDAVVNEAVSKYNLTEEEIVNNGYRIYTELDQNYQANMQIVYENTSLFPRAEDGTFAQSGSVALEPKTGGVRGVVGQVADNDKTGFRNFNYATQSKRSPGSTIKPLVVYTPAVEAGWALNKQLDNHTMQYDSYKVDNYAGIKTSREVPMYQSLAESLNLPAVATVNDLGVDKAFEAGEKFGLNMEKVDRVLGVALGSGVETNPLQMAQAYAAFANEGLMPEAHFISRIENASGQVIASHKNSQKRVIDKSVADKMTSMMLGTFTNGTGISSSPADYVMAGKTGTTEAVFNPEYTSDQWVIGYTPDVVISHWLGFPTTDENHYLAGSTSNGAAHVFRNIANTILPYTPGSTFTVENAYKQNGIAPANTKRQVQTNDNSQTDDNLSDIRGRAQSLVDEASRAISDAKIKEKAQTIWDSIVNLFR
As for B3, in test [1], the binding entry is “no binding”.
